Experimental data as given in patent publication US20150150888A1, “COMBINATION OF SELECTIVE PROGESTERONE-RECEPTOR MODULATORS AND NONSTEROIDAL ANTI-INFLAMMATORY DRUGS” (LABORATOIRE HRA-PHARMA, priority 2012, published 2015).
At least one structure is not confirmed: it was looked up by name or label, or the drawing left a doubt.

System: LH-induced ovarian follicle rupture
Experiment: ovarian hyperstimulation (superovulation) model: counting the oocytes released into the oviducts
Type: in vivo, CD1 mice
Experimental: The effect of the combined administration of ulipristal acetate (UPA) and of a non-steroidal anti-inflammatory agent (NSAID) on LH-induced ovarian follicle rupture was evaluated in an animal model of ovarian hyperstimulation (superovulation model).
24 to 28-day-old immature CD1 mice were subjected to ovarian hyperstimulation by injection of 5 IU of PMSG (pregnant mare's serum gonadotropin) followed, 48 h later, by 5 IU of hCG (chorionic gonadotropin hormone) intraperitoneally. The mice were divided up into several groups, each of 10 mice. 8 hours after the hCG injection, the mice were administered, intraperitoneally, with either the compound(s) to be tested, or the placebo (vehicle). The mice were euthanized 18 hours after the hCG injection. The effect of the compound(s) on follicular rupture and therefore ovulation was determined by counting the oocytes released into the oviducts. In experiment series No. 2, a morphological and histological examination of the ovaries was carried out so as to evaluate the presence of unruptured follicles and/or of yellow bodies in the ovaries of each group of animals.
Series 1: • Group 1: placebo • Group 2: 3 mg/kg of piroxicam • Group 3: 10 mg/kg of piroxicam • Group 4: 30 mg/kg of piroxicam. […]

Cc1cnc(NC(=O)C2=C(O)c3ccccc3S(=O)(=O)N2C)s1 [meloxicam]
effect on number of oocytes released compared to the control group (meloxicam 30 mg/kg alone): significant effect | ovulation inhibition, meloxicam administered alone (meloxicam 3, 10, 30 mg/kg alone): only weakly inhibits ovulation
